The record followed here is publication PMC5998028 (Scientific Reports, 2018).

The nature of this data set: general procedure: Fmoc solid-phase peptide synthesis; HMPB-ChemMatrix resin (from aminomethyl-ChemMatrix, 0.69 mmol/g); HATU/NMM. The conditions noted are these: whole synthesis, overall.

End groups of sequences in plain letters are not given here.

On to “KYYGNGVTCGKHSCSVDWGKATTCIINNGALAWATGGHQGNHKC”, for which the isolated yield is 55%.
